Among the data in PubChem BioAssay AID328 (DTP/NCI, 2004) are T/C and survivor count values, retold here.

The test system of this experiment is BDF1 mice, P388 leukemia ip, median survival T/C. The experiment in a line: NCI In Vivo Anticancer Drug Screen. Data for tumor model P388 Leukemia (intraperitoneal) in B6D2F1 (BDF1) mice. The note with it: T/C endpoint: median survival time, higher T/C = longer survival. The procedure, abridged: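 Vehicle-dosed animals serve as the reference; survival of compound-dosed, tumour-implanted mice is divided by it.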

[1] abbreviates: dose: 100.0 mg/kg/injection, schedule: Q01DX009 (ip), vehicle: Klucel (hydroxypropylcellulose) (HPC).
[2] abbreviates: dose: 200.0 mg/kg/injection, schedule: Q01DX009 (ip), vehicle: Klucel (hydroxypropylcellulose) (HPC).
The mark [3] stands for this setting: dose: 100.0 mg/kg/injection, schedule: Q01DX009 (ip), vehicle: saline with Tween-80.
The mark [4] stands for this setting: dose: 200.0 mg/kg/injection, schedule: Q01DX009 (ip), vehicle: saline with Tween-80.
Where [5] appears, read: dose: 400.0 mg/kg/injection, schedule: Q01DX009 (ip), vehicle: saline with Tween-80.

The list shows only some results of the screen, not a fair sample: it is rich in T/C values a quarter to a half above the control, in often repeated tests (any T/C) and in doses without a T/C. Further doses and runs are listed elsewhere. T/C is the treated group as % of the vehicle group. Some doses have a count of surviving animals in place of a T/C: the source holds a T/C of zero for them, seemingly a mark for toxic or unscored doses. Some doses without a T/C left all or most animals alive at the check, yet need not have been tolerated: survival well below the control is almost never listed, so the zero probably covers shortened survival too. Survivors were counted at the toxicity check, usually on the fifth day, unless a day is given; later deaths do not show. Schedule codes are those of the source, read here as Q, the interval in days (D) or hours (H), X, the number of doses. Some entries were tested several times; their values stand side by side, smallest first. Where survival is the endpoint, the PubChem record calls one and a half times the control and up active, and a quarter to a half above the control has no call in these data; cut-offs in other NCI protocols can differ. Some T/C values are followed by the survivors on the day toxicity was checked, most often the fifth; where none is given, no animal had died by that day.

Regarding `CN(N=O)C(=O)N[C@@H](C=O)[C@@H](O)[C@H](O)[C@H](O)CO`, the T/C (dose: 12.5 mg/kg/injection, schedule: Q01DX009 (ip), vehicle: other) is 128 % of control; the T/C (dose: 17.0 mg/kg/injection, schedule: Q01DX009 (ip), vehicle: water) was 145 % of control; the T/C (dose: 20.0 mg/kg/injection, schedule: Q01DX010 (ip), vehicle: other) is 131 % of control; the T/C (dose: 25.0 mg/kg/injection, schedule: Q01DX009 (ip), vehicle: other) is 132 % of control; the T/C (dose: 26.0 mg/kg/injection, schedule: Q01DX009 (ip), vehicle: water) is 142 and 143 % of control; the T/C (dose: 39.0 mg/kg/injection, schedule: Q01DX009 (ip), vehicle: water) was 139 % of control. Further, the T/C (dose: 100.0 mg/kg/injection, schedule: Q01DX009 (ip), vehicle: other) is 125 % of control. Further, the survivor count was 7 of 8 (dose: 130.0 mg/kg/injection, schedule: Q01DX009 (ip), vehicle: water); 6 of 6 (dose: 160.0 mg/kg/injection, schedule: Q01DX010 (ip), vehicle: other); 9 of 10 (dose: 200.0 mg/kg/injection, schedule: Q01DX009 (ip), vehicle: other); 3 of 8 and 7 of 8 (dose: 200.0 mg/kg/injection, schedule: Q01DX009 (ip), vehicle: water).
Regarding `Cc1cc(N)c2cc(NC(=O)CCCCCCCCC(=O)Nc3ccc4nc(C)cc(N)c4c3)ccc2n1`, the T/C runs as follows: (dose: 12.5 mg/kg/injection, schedule: Q01DX009 (ip), vehicle: Klucel (hydroxypropylcellulose) (HPC)) 140 % of control; (dose: 19.0 mg/kg/injection, schedule: Q04DX003 (ip), vehicle: Klucel (hydroxypropylcellulose) (HPC)) 140 % of control; (dose: 25.0 mg/kg/injection, schedule: Q01DX009 (ip), vehicle: Klucel (hydroxypropylcellulose) (HPC)) 145 % of control; (dose: 29.0 mg/kg/injection, schedule: Q04DX003 (ip), vehicle: Klucel (hydroxypropylcellulose) (HPC)) 145 % of control [5 of 6 alive]; (dose: 65.0 mg/kg/injection, schedule: Q04DX003 (ip), vehicle: Klucel (hydroxypropylcellulose) (HPC)) 129 % of control; under setting [1], 140 % of control [5 of 6 alive]. Also, the T/C is 125 % of control (dose: 100.0 mg/kg/injection, schedule: Q04DX003 (ip), vehicle: Klucel (hydroxypropylcellulose) (HPC)) and 145 % of control under setting [2]. The survivor count is 4 of 6 under setting [1] and 0 of 6 under setting [2].
Turning to `N=C(N)c1ccc(OCCCOc2ccc(C(=N)N)cc2Br)c(Br)c1`, the T/C (dose: 7.5 mg/kg/injection, schedule: Q01DX009 (ip), vehicle: saline) was 136 % of control; the T/C (dose: 16.5 mg/kg/injection, schedule: Q01DX009 (ip), vehicle: saline sonified) was 127 % of control; the T/C (dose: 37.5 mg/kg/injection, schedule: Q01DX009 (ip), vehicle: saline sonified) was 145 % of control.
Regarding `CCCOC(=O)/C=C(\Br)C(=O)OCCC`, the survivor count (dose: 100.0 mg/kg/injection, schedule: Q04DX003 (ip), vehicle: saline with Tween-80) is 3 of 6.
`CCCC[N+](CC)(CC)CCCNC1=CC(=O)C(NCCC[N+](CC)(CC)CCCC)=CC1=O`: the survivor count (dose: 1.56 mg/kg/injection, schedule: Q04DX002 (ip), vehicle: saline) is reported as 0 of 6.
With `Cn1cnc([N+](=O)[O-])c1Sc1nc(N)nc2nc[nH]c12`, under “dose: 16.0 mg/kg/injection, schedule: Q01DX009 (ip), vehicle: saline with Tween-80”, the T/C is 130 % of control. Besides, the survivor count (dose: 25.0 mg/kg/injection, schedule: Q01DX009 (ip), vehicle: saline with Tween-80) is on record as 6 of 6 and the survivor count (dose: 37.5 mg/kg/injection, schedule: Q01DX009 (ip), vehicle: saline with Tween-80) was 6 of 6.
For `Cc1c2oc3c(C)ccc(C(=O)NC4C(=O)NC(C(C)C)C(=O)N5CCCC5C(=O)N(C)CC(=O)N(C)C(C(C)C)C(=O)OC4C)c3nc-2c(C(=O)NC2C(=O)NC(C(C)C)C(=O)N3CCCC3C(=O)N(C)CC(=O)N(C)C(C(C)C)C(=O)OC2C)c(NCCCO)c1=O` (stereo not given), the T/C by setting is: (dose: 1.6 mg/kg/injection, schedule: Q01DX001 (ip), vehicle: saline + alcohol) 149 % of control; (dose: 12.8 mg/kg/injection, schedule: Q01DX001 (ip), vehicle: saline + alcohol) 132 % of control [7 of 8 alive].
Regarding `NNC(=O)C1CC1`, the survivor count is on record as 6 of 6 (dose: 25.0 mg/kg/injection, schedule: Q01DX009 (ip), vehicle: saline) and 5 of 6 (dose: 100.0 mg/kg/injection, schedule: Q01DX009 (ip), vehicle: saline).
On to `CCCc1nc2c(OC)ccc(OC)c2nc1C`, for which the survivor count is given as 6 of 6 (dose: 225.0 mg/kg/injection, schedule: Q01DX009 (ip), vehicle: Klucel (hydroxypropylcellulose) (HPC)) and 2 of 6 (dose: 335.0 mg/kg/injection, schedule: Q01DX009 (ip), vehicle: Klucel (hydroxypropylcellulose) (HPC)).
As to `COc1cccc2c1C(=O)c1c(O)c3c(c(O)c1C2=O)C[C@@](O)(/C(C)=N/NC(=O)c1ccccc1)C[C@@H]3OC1CC(N(C)C)C(O)C(C)O1` (stereo not given in full), the survivor count (dose: 12.5 mg/kg/injection, schedule: Q01DX009 (ip), vehicle: water) is 5 of 6.
Turning to `CCOCN(COCC)c1cccc(Cl)c1`, the T/C by setting is: under setting [3], 139 % of control; under setting [4], 144 % of control.
As to `CCCCSC#N`, the survivor count (dose: 25.0 mg/kg/injection, schedule: Q01DX001 (ip), vehicle: saline) is recorded as 2 of 6.
Turning to `N#CCN1CCOCC1`, the survivor count runs as follows: (dose: 300.0 mg/kg/injection, schedule: Q01DX009 (ip), vehicle: saline) 1 of 6; (dose: 400.0 mg/kg/injection, schedule: Q04DX003 (ip), vehicle: saline) 3 of 6.
Turning to `CCCNC1=C(C)C(=O)C2=C(C1=O)[C@H](COC(N)=O)[C@]1(OC)[C@@H]3N[C@@H]3CN21`, the T/C is 140 % of control (dose: 4.6 mg/kg/injection, schedule: Q01DX009 (ip), vehicle: saline sonified) and 138 % of control (dose: 45.0 mg/kg/injection, schedule: Q01DX009 (ip), vehicle: saline).
With `CCCCCCCCCCSc1ncnc2nc[nH]c12`, the survivor count by setting is: under setting [3], 6 of 6; (dose: 400.0 mg/kg/injection, schedule: Q04DX003 (ip), vehicle: saline with Tween-80) 6 of 6.
Turning to `COc1cc(N(CCCl)CCCl)ccc1C=Nc1ccccc1C(=O)O`, the survivor count runs as follows: (dose: 10.0 mg/kg/injection, schedule: Q01DX009 (ip), vehicle: saline) 6 of 6; (dose: 20.0 mg/kg/injection, schedule: Q01DX009 (ip), vehicle: saline) 6 of 6.
As for `CCSc1ncnc2nc[nH]c12`, under “dose: 400.0 mg/kg/injection, schedule: Q04DX003 (ip), vehicle: Klucel (hydroxypropylcellulose) (HPC)”, the survivor count is listed as 1 of 6.
Take `CC1C(=O)CCC2(C)C1CCC1C3CCC(O)C3(C)CCC12` (stereo not given): the survivor count is on record as 6 of 6 under setting [3], 6 of 6 under setting [4] and 6 of 6 under setting [5].
`CCCCCCC(=O)/C=C/c1c(Cl)cccc1Cl`: the survivor count under setting [5] is listed as 1 of 6.
Regarding `CC(=O)[C@H]1[C@H](C)C[C@H]2[C@@H]3CCC4=CC(=O)CC[C@]4(C)[C@@]3(F)[C@@H](O)C[C@@]21C`, the T/C is, setting by setting: (dose: 132.0 mg/kg/injection, schedule: Q04DX003 (ip), vehicle: saline) 131 % of control; (dose: 200.0 mg/kg/injection, schedule: Q04DX003 (ip), vehicle: alcohol) 125 % of control.
Turning to `c1ccc(-c2cc[s+]s2)cc1`, the T/C is 127 and 137 % of control (dose: 25.0 mg/kg/injection, schedule: Q01DX009 (ip), vehicle: water); 127 % of control (dose: 50.0 mg/kg/injection, schedule: Q04DX003 (ip), vehicle: water); 125 % of control (dose: 100.0 mg/kg/injection, schedule: Q04DX003 (ip), vehicle: water). Further, the survivor count reads like this: (dose: 50.0 mg/kg/injection, schedule: Q01DX009 (ip), vehicle: water) 5 of 6; (dose: 75.0 mg/kg/injection, schedule: Q01DX009 (ip), vehicle: water) 3 of 6; (dose: 100.0 mg/kg/injection, schedule: Q01DX009 (ip), vehicle: water) 1 of 6.
